Test results from article PMC11681874.
These are yes or no findings as the source states them, for the method shown. In cells and extracts the contact can be indirect. Some results given as binding are weak or reduced against the parent protein; the word gives no strength.

Target: T1, RXRα (UniProt P28700)
T1 sequence: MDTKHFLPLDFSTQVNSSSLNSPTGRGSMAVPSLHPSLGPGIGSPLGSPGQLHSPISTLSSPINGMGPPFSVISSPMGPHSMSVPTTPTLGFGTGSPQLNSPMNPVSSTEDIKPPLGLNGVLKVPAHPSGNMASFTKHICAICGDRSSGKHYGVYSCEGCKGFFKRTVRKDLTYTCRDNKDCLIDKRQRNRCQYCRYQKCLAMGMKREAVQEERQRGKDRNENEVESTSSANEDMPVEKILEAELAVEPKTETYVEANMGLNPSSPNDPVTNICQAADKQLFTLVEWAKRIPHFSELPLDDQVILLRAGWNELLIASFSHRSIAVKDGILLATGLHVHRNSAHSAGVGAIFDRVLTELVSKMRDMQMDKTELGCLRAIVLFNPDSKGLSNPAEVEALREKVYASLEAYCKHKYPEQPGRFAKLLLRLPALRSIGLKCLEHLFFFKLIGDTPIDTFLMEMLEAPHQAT
Experiment: co-IP; immunoprecipitation with anti-RXRα antibody of exogenously expressed proteins as indicated, in differentiated 3T3-L1 cells; no methods section for the co-IP

B1: ZBTB9 (protein, UniProt Q8CDC7 1-459)
chain: MDASTPLPPASSSPRCNPAPQTIHIEFPHHSSSLLESLNRHRLEGKFCDVSLLVQGRELRAHKAVLAAASPYFHDKLLLGDAPRLTLPNVIEADAFEGLLQLIYSGSLHLPLDALPAHLLVASGLQMWQVVDRCSEILRELETSGGISAGGRASSLTLISTTSSGGWCIRSSPFQNPVRSSASTENSVLPESPAGGEGSELEGMLQIQVKVEEEEEQGSAAPLFQTPQPERVSGGVSQACGSHPLPTPALPSKPSEDESSTVDPPAPPVQASQILYVNQENVECKEEIARGTKEKTKVLSGEDSEEKEELRYLLSSGGGESSGAGDPSWKPVDLHGNEILSGDGGPGGTGQAMHGPVKLGGTPPADGKCFACLCGKRFAVKPKRDRHIMLTFSLRPFGCGICNKRFKLKHHLTEHMKTHARALHACPHCGRRFRVQAFFLRHRDLCKGQGWPTYHWTYK
binding: binds
